PubChem BioAssay AID1224826 – NIAID | 2016
Purpose: 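Genes that change LPS-induced Tnf promoter activity in mouse macrophages when knocked down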 (primary screen). Cell system: RAW264.7 G9 macrophages from mouse bearing reporters for p65 (GFP) and the Tnf promoter (mCherry). Reagent: siRNA pool against mouse genes, 100 nM. Duration: 16 h of LPS stimulation, after 2 days of siRNA transfection. Conditions: bacterial lipopolysaccharide (Salmonella minnesota R595), 10 ng/ml. Read-out: 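Nuclear mCherry signal of the Tnf promoter reporter measured by imaging after background removal, scaled to each plate median and turned into robust z-scores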. Reading the numbers: Tnf reporter robust z-score: higher = stronger Tnf promoter reporter signal after LPS; Tnf reporter intensity: higher = stronger Tnf promoter reporter signal. Hit rule: 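a well counts as active at a score of -1.3 or below (Tlr4 knock-down control median) or above 3 (raised signal); controls and wells holding fewer than 50 cells are excluded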. Calls: active = Tnf reporter clearly lowered or raised; inactive = no clear change in Tnf reporter.
The deposit covers about 17,000 reagents; below is a part drawn at random. About 1,110 of them (6.6%) count as active. 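Active means lowered or raised reporter signal; replicate intensities are raw and not normalised per plate.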 Unmarked entries are inactive.

no.	target	Tnf reporter robust z-score	fewer than 50 cells in well	Tnf reporter intensity, replicate 1	Tnf reporter intensity, replicate 2
1	Tex19.2	1.78	enough cells in well	327	62
2	Has3	2.66	enough cells in well	443	327
3	Camk1g	1.09	enough cells in well	285	202
4	Krit1	-0.13	enough cells in well	270	166
5	Folr2	0.6	enough cells in well	343	252
6	Or4c122	0.24	enough cells in well	221	148
7	Oxct1	1.54	enough cells in well	386	262
8	Timm8b	2.32	enough cells in well	192	181
9	Banf2	-0.69	enough cells in well	161	49.8

The list goes on; the last 3 above are carried over.
no.	target	Tnf reporter robust z-score	fewer than 50 cells in well	Tnf reporter intensity, replicate 1	Tnf reporter intensity, replicate 2
7	Oxct1	1.54	enough cells in well	386	262
8	Timm8b	2.32	enough cells in well	192	181
9	Banf2	-0.69	enough cells in well	161	49.8
10	Dpy19l1	0.31	enough cells in well	275	89
11	Aurkb	-0.8	enough cells in well	206	112
12	Fam241a	0.47	enough cells in well	223	153
13	Tas1r3	-0.75	enough cells in well	208	64.7
14	Diras1	0.72	enough cells in well	302	242
15	Crisp2	-0.1	enough cells in well	222	125
16	Pycr1	0.38	enough cells in well	359	224
17	Mrgprd	1.45	enough cells in well	327	154
18	Ric1	0.15	enough cells in well	144	129
19	Kifap3	0.11	enough cells in well	230	169
20	Oxct2b	0.35	enough cells in well	154	159
21	Or5al5	-0.12	enough cells in well	178	113
22	Scgb1b2	1.94	enough cells in well	287	265
23	Hagh	1.89	enough cells in well	391	306
24	Or10a3b	-1.22	enough cells in well	68.1	55.9
